In brackets after ≈: the same amount, converted by molar mass.

The text below walks through data of ChEMBL document CHEMBL4425091, “Bafilomycins and Odoriferous Sesquiterpenoids from Streptomyces albolongus Isolated from Elephas maximus Feces” (J Nat Prod, 2016).

One test deals with Staphylococcus aureus. The test can be described thus: Antibacterial activity against Staphylococcus aureus ATCC 25923 after 24 hrs by MTT based microbroth dilution assay. As to conditions: ATCC 25923, 24 h. Type of test: functional. A digest of the protocol:
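Two-fold broth microdilution MIC in LB medium (pH 7.0). Compounds dissolved in DMSO, serially diluted to eight levels (11.0−0.086 mg/mL), then each diluted 10-fold in medium (1.1−0.0086 mg/mL). 10 μL of this added to 100 μL of bacteria at 1 × 10^6 cfu/mL. Incubated 24 h at 28 °C. MTT added for 4 h, wells emptied, DMSO added, absorbance read at 570 nm.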
Background: In broth dilution the organism is exposed to a series of concentrations in liquid medium.

A further test concerns Escherichia coli. Put plainly: microbe, parasite or virus in culture. The note with it: ATCC 25922, 24 h.

Take `O=C(O)c1cn(C2CC2)c2cc(N3CCNCC3)c(F)cc2c1=O` [CIPROFLOXACIN]: the MIC in the test on Staphylococcus aureus and in the test on Escherichia coli was 0.13 µg/mL (≈ 0.392 µM) each time.
